Assay results reported in patent publication EP3259288B1 (Innate Pharma, dated 2026).
Residue numbers refer to the chain shown, from its start. No constants are given. Whether binding was seen depends on the method and setting. Some results given as binding are weak or reduced against the parent protein; the word gives no strength. For some of these results: Tags and fused reporters may be left off the sequences shown.

T1: recombinant human CD73-His extracellular domain recombinant protein (soluble dimer) (human) (UniProt P21589)
T1 sequence: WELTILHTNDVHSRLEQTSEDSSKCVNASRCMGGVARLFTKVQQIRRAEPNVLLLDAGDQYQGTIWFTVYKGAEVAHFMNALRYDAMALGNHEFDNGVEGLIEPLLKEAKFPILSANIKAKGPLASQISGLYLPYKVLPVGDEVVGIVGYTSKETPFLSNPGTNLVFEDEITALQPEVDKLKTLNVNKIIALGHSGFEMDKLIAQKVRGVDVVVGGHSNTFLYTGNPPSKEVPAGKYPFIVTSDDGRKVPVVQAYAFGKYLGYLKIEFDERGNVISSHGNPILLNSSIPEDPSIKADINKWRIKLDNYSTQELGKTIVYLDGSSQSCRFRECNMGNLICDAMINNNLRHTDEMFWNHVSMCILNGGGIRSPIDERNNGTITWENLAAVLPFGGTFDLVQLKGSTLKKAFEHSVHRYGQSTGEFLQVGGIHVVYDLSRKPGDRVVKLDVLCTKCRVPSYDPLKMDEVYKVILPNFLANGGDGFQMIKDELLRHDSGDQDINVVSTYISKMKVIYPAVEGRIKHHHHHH

T2: human CD73 mutant 2 (human) (UniProt P21589)
T2 sequence: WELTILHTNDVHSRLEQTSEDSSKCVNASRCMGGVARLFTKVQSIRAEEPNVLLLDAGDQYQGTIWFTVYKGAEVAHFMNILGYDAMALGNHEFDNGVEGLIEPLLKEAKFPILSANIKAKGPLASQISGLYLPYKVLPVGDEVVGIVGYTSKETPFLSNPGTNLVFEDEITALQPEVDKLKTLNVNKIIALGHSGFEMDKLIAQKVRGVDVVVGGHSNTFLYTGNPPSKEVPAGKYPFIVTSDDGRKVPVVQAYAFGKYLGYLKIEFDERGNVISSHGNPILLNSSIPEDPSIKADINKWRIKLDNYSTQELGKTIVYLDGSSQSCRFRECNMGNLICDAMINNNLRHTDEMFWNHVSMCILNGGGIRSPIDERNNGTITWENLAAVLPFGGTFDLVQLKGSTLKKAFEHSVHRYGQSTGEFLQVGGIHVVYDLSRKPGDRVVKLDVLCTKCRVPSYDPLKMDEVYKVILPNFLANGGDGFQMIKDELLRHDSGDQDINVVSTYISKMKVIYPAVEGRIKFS

B1: antibody 11E1 (antibody, V domains shown)
VH: EIQLQQSGPELVKPGASVKVSCKASGYAFTSYNMYWVKQSHGKSLEWIGYIDPYNGGTSYNQKFKGKATLTVDKSSSTAYMHLNSLTSEDSAVYYCARGYGNYKAWFAYWGQGTLVTVSA
VL: DAVMTQTPKFLLVSAGDRVTITCKASQSVTNDVAWYQQKPGQSPKLLIYYASNRYTGVPDRFTGSGYGTDFTFTISTVQAEDLAVYFCQQDYSSLTFGAGTKLELK
B2: antibody 6E1 (antibody, V domains shown)
VH: B1 VH with I2F, S44R, T58S, S85N, G101N
VL: B1 VL with D1S, A2I, V78M
B3: antibody 8C7 (antibody, V domains shown)
VH: B1 VH with I2V, T30A, Y35N, E46D, T58S, Q62L, K63T, S77T
VL: SIVMTPTPKFLLVSAGDRVTITCKASQSVSNDVAWYQQKPGQSPKLLIYYASTRYTGVPDRFTGSGYGTDFTFTISTVQAEDLAVYFCQQDYSSLTFGAGTKLELKR
B4: antibody 3C12 (antibody, V domains shown)
VH: B1 VH with E1Q, T30A, Y35N, E46D, T58S, Q62L, K63T, S77T
VL: B3 VL with S1D, I2V, P6Q

Legend:
[1] = biological target: T1, recombinant human CD73-His extracellular domain recombinant protein (soluble dimer) (human); test: ELISA on coated recombinant human CD73
[2] = biological target: T2, human CD73 mutant 2 (human); test: Figure 7 legend: flow cytometry titration on cells expressing CD73 mutant 2

binding [1] | binding [2] | Binder
binds |  | B1
binds |  | B2
binds |  | B3
 | binds | B4
